The whole screen tested about 52,000 sequences, of which about 210 (0.4%) were called active.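 How the source made its calls: active means gene whose silencing raises cell survival under the drug, median off-target-corrected z-score across its silencing RNAs 2 or more; inactive means the rest.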 Some of the results follow.

A short description of the assay: Resistance to Poly (ADP-Ribose) Polymerase inhibitor: Gene Identification via Genome-wide siRNA Screen. Conditions: mouse BRCA2 R2336H ES cells, olaparib, CellTiter-Glo viability; active compounds read high. Summed up:
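Mouse BRCA2 R2336H ES cells were reverse-transfected with siRNA (20 nM final), treated at 48 h with 500 nM olaparib, and read by CellTiter-Glo after 72 h. Scores: MAD-based z per siRNA, median per gene, seed off-target correction.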
(In general: In ATP-based viability assays light output follows the ATP content of the culture.)
For GGACAGUCGAAUUUCAGUCTT against Olfr417, the z-score was inactive: 0.149. Turning to GCUGGUGUGUAACAUCAAUTT against Fut8, the z-score is inactive: 1.72.

With “GGAAAGAAUCCACUUGCAUTT against 5430438H03Rik”, the z-score was inactive: 1.7. As for GCAGCAGUUUUGUAGACAUTT against Fbxo25, the figure is inactive: 1.53; as for CCACUGAAGUUUUCAUUCUTT against Olfr1055, inactive: 0.663; as for GGAAAUGAGUCUCAACCAGTT against D13Wsu64e, inactive: -0.694. As to CCCUUCUCCACCUGAGAGUTT against Orm3, the z-score was inactive: 0.573. The same measure for GGUAUAGAGAGUUCGUGUGTT against Snx10: inactive: 1.63; for GGAAUAAAGGAACUGAAUCTT against Plek: inactive: 0.753; for CCUGUAAAGUGUGAUAUUATT against Cach: inactive: -0.551.

With GCUCAACUUCUGAAUUAUATT against Enpep, the z-score is inactive: 0.121. As for GGGACAGUUGACUUUUUAUTT against Cntn4, the figure is inactive: -0.00236; as for GGCUCUGGCUAAGUACUUGTT against Cenpb, inactive: 0.497. On to “GGCAAAUUAAAGACAAAUCTT against 9530009G21Rik”, for which the z-score was inactive: 1.04.

Turning to GGGAACUUAACCUAGGCGUTT against Ipf1, the z-score was inactive: 1.49. Turning to “AGUCUCACCAGCAACGCACTT against 4930451E10Rik”, the z-score was inactive: -2.33. For UCGGGAAAUGAAAUGUUGCTT against Crh, the z-score is inactive: 0.767. On to GCAGAUUUGAAGCAUAUUGTT against BC004022, for which the z-score is inactive: -0.505. As for GGGAAGUUUGGUUCUUUGGTT against Msn, the z-score is inactive: 0.371. Regarding GCAAAAGGAAACGAUCUCATT against Fbxo43, the z-score is inactive: -0.96.

Regarding “GCCAUACGACUAUAGUAUUTT against 2610305D13Rik”, the z-score was inactive: -0.402. Take GGCUUUUCUGCCAUUUAUGTT against Sox18: the z-score was inactive: -0.144. As for GGUGAAAAUCAAGCUGAAUTT against Smarca2, the figure is inactive: 0.264. For CCAUUGCCAACAACUAGAUTT against Ela3b, the z-score was active: 2.87. The same measure for GGUAUGAAUACCACUGGGCTT against Mobk1b: inactive: -0.288; for “GGCUCACAAAGAGGAAAACTT against A730042J05Rik”: inactive: -0.922; for “GGAAGAUUAUUUUCUUACCTT against 4933404O11Rik”: inactive: 1.32.

Regarding CCAUGAGGAUGAUUACCUATT against Cnga2, the z-score was inactive: -0.306.

Turning to “UCCCAACUCCUAAAGAUCGTT against F730035P03Rik”, the z-score was inactive: -1.35. As for GGACAUCCGUCCCUAUAUCTT against Zfp366, the figure is inactive: 0.516; as for GCGAGAAAUUACCACCUUCTT against Klhl8, inactive: -0.475. As for GCUAUUCUGGUGUCAAGACTT against Gbp1, the figure is inactive: -0.426; as for GCGGAGAAUAACAUAUCUCTT against Fut8, inactive: 0.214. The same measure for CGAAAGUUACUCAUAGAGATT against Itga6: active: 0.364. As to GGCGGAAAUGCAAAUGCAATT against Bxdc1, the z-score is inactive: -0.61. Consider GCCGGGAUUUCGUUUUCUUTT against BC031407, for which the z-score is inactive: 1.57.

For the sequence GGAAAAAGGCUUUUGGGACTT against Olfr135, the z-score was inactive: -0.216. Consider GAUUCCAAGACAUUAAACATT against Frda, for which the z-score is inactive: -1.67. As for GCACGGCCCUACUUUAUAGTT against Trim33, the z-score is inactive: -1.64.

As to CGGUUGUCUUCCUCUUAGUTT against Fzd5, the z-score was inactive: -1.44. In the case of CGCACUGGAUAAUAUCAGCTT against Dok5, the z-score is inactive: -0.307. GGAAAAUCAUGGGAGCCUUTT against Lpo: the z-score is inactive: -1.5. Consider “GGCAGUCCUUCCUCCAAAGTT against A630048M13Rik”, for which the z-score is inactive: -1.16. As to GGCUGAAGAUGGAAACAUCTT against Gtpbp2, the z-score was inactive: 0.741.

GGAUUUCAACAUCUAUGGCTT against Tpra40: the z-score was inactive: 0.185. The same measure for GGGAAGUUUCUUGAAGCACTT against Rfxank: inactive: -0.821; for GCAGAUCUGCGUCAAUGCUTT against Scube1: inactive: 0.0542; for GGAGUAUGAUUCAGAAAUGTT against Scn11a: inactive: -0.351. The same measure for “GGAUUUGUGACUUUCUGCATT against 4930583C14Rik”: inactive: 0.696; for GGGAUCGCUGUAUAGAAAUTT against Chdh: inactive: 0.124; for “GGUAAAGUGGGAUGUGGAATT against C130067A03Rik”: inactive: -1.01.

GCGAGAUUCUUAAAGAAAUTT against Brdt: the z-score is inactive: -0.0933.

On to “GGCCAAAGUACUUUGUUCCTT against 4930402E16Rik”, for which the z-score is inactive: -0.661.

Regarding “GGCUUUGUAGCGAUAACAATT against D930030D11Rik”, the z-score is inactive: -0.637. As for CCUGUGGAUUAUGAGUUCATT against Zfhx1a, the figure is inactive: -0.827. For the sequence GCCGCUUAGAGGCUCAUCUTT against Nfe2l2, the z-score was inactive: 0.218. On to “GGAAAUUAAGUGAUUUGACTT against 4432417N03Rik”, for which the z-score is inactive: -0.196.

As to GAGCUAAGCAAGAUGCUAGTT against Sox17, the z-score is inactive: -0.182. As for GGAAACCUAUGUCUCAAGATT against Mrps36, the figure is inactive: -0.223. As for CGUAUUAUGUCUGGUUUGUTT against Slc35a1, the figure is inactive: -0.624; as for GGGUGUUUUCAUUAACACATT against Setdb1, inactive: -0.483. Turning to GGUGAGCACCUUCAAGUCUTT against Gpc2, the z-score is inactive: 0.589.

In the case of GGGUACCUCAUAAAGCAUATT against Dock2, the z-score was inactive: -0.228. In the case of GAAUGAGGAUCUACGAAAATT against Crygb, the z-score is inactive: 0.434. For the sequence GGAUCUCUCCUUGAGGAGATT against Glp2r, the z-score was inactive: -0.357. The same measure for “GGGACUUCCUUAUUGGAACTT against A830019P07Rik”: inactive: -0.0745.

Source of the values: PubChem BioAssay AID1347423 (Functional Genomics Laboratory (NCATS/FGL), 2020).
